PubChem BioAssay AID720505 | Drosophila RNAi Screening Center | 2013

- Screen: 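Knock-downs that reduce calcium influx once internal stores are emptied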 (primary screen)
- System: Drosophila S2R+ cells
- Reagent: long dsRNA against Drosophila genes
- Challenge: thapsigargin (2 µM) in calcium-free buffer to empty internal stores, then 2 mM calcium added back
- Measurement: 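Fluo-4 signal in 384-well plates read on a FLIPR after thapsigargin (2 µM, calcium-free) store depletion and 2 mM calcium add-back; unnormalised mean endpoint per well; screen run twice, selected wells retested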
- Scale: calcium signal: higher = more calcium entry after store depletion
- Rule for the call: 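About 1500 genes called as lowering calcium entry, by varying amounts, judged against per-plate control wells with STIM1 as positive and Rho1 as negative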
- Meaning of the calls: active = called as lowering calcium entry; inactive = not called
In all, the deposit lists about 20,000 reagents; this is an unselected part of those that have a named target and a result. Over the whole deposit, about 2,100 (10%) got an active call. 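Raw plate signals without normalisation; calls rest on control-based scores that were not deposited; replicate 2 separates called from uncalled poorly.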 Unmarked entries are inactive. The numbers tell different reagents against one gene apart. Not stated in the record: the amount of reagent, the time to read-out.

CG14573 — calcium signal, replicate 1: 120; calcium signal, replicate 2: 221
Uba4 — calcium signal, replicate 1: 187; calcium signal, replicate 2: 143
CG13064 — calcium signal, replicate 1: 113; calcium signal, replicate 2: 115
Osi15 — calcium signal, replicate 1: 107; calcium signal, replicate 2: 108
CG5026 — calcium signal, replicate 1: 65 (active); calcium signal, replicate 2: 100
Hydr1 — calcium signal, replicate 1: 73.4; calcium signal, replicate 2: 131
Hsc70-5 — calcium signal, replicate 1: 213; calcium signal, replicate 2: 107
Uros1 — calcium signal, replicate 1: 184; calcium signal, replicate 2: 173
CG14767 — calcium signal, replicate 1: 179; calcium signal, replicate 2: 178

Reagents listed above called active:
CG5026 — calcium signal, replicate 1: 65 (active); calcium signal, replicate 2: 100

Further reagents follow.
CG31207 — calcium signal, replicate 1: 105; calcium signal, replicate 2: 198
Nt5a — calcium signal, replicate 1: 138; calcium signal, replicate 2: 94.5
Hus1-like — calcium signal, replicate 1: 93.7; calcium signal, replicate 2: 118
CG9992 #1 — calcium signal, replicate 1: 165; calcium signal, replicate 2: 151
CG9992 #2 — calcium signal, replicate 1: 189; calcium signal, replicate 2: 93.3
Obp99b — calcium signal, replicate 1: 154; calcium signal, replicate 2: 147
CG31949 — calcium signal, replicate 1: 82.7; calcium signal, replicate 2: 95.7
CG32983 — calcium signal, replicate 1: 89.4; calcium signal, replicate 2: 235
CG10646 — calcium signal, replicate 1: 99.2; calcium signal, replicate 2: 93.9
CG6244 — calcium signal, replicate 1: 183; calcium signal, replicate 2: 237
